Data taken from patent US20230183793.
A negative result means that nothing was seen under these conditions.

Chains of the proteins cited; added tags and fusions are not shown. Lines headed by an entry give the natural chain unless they say otherwise; changes in a name come on top.
UniProt P31941: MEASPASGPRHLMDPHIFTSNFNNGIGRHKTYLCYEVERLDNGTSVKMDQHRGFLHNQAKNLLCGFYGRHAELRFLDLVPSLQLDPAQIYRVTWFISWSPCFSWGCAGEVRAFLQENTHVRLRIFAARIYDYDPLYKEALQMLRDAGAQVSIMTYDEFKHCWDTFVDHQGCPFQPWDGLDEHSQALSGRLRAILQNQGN

Molecular target: APOBEC3A (A3A) (UniProt P31941)
Assay: activity assay
Conditions: deamination undetectable, substrate not processed, binding itself not measured, purified recombinant protein, single-stranded DNA, variant of 202mer ssDNA

Sequence	activity on this sequence (all C replaced by 5-carboxylcytosine)	activity on this sequence (all C replaced by 5-propynyl-C)
TTGATATGGGTTATGAATGAAGTAGTCGATCTTTCATCATATTCTAGATCCCTCTGAAAAAATCTTCCGAGTTTGCTAGGCAGTGATACATAACTCTTTTCCAATAATTGGGGAAGTCATTCAAATCTATAATAGGTTTCAGATTTAATTCTGACTGTAGCTGCTGAAACGTTGCGGAGTGTTAAGGTATATGAGTAGATGA [202mer ssDNA, 5caC]	not active	–
TTGATATGGGTTATGAATGAAGTAGTCGATCTTTCATCATATTCTAGATCCCTCTGAAAAAATCTTCCGAGTTTGCTAGGCAGTGATACATAACTCTTTTCCAATAATTGGGGAAGTCATTCAAATCTATAATAGGTTTCAGATTTAATTCTGACTGTAGCTGCTGAAACGTTGCGGAGTGTTAAGGTATATGAGTAGATGA [202mer ssDNA, 5pyC]	–	not active
